The record followed here is article PMC6407830.

Protein sequences, listed by entry. Tags and fused reporters are not part of them. Lines headed by an entry give the natural chain unless they say otherwise; changes in a name come on top. Residues count along the entry.
UniProt Q9EQY0, residues 21-977: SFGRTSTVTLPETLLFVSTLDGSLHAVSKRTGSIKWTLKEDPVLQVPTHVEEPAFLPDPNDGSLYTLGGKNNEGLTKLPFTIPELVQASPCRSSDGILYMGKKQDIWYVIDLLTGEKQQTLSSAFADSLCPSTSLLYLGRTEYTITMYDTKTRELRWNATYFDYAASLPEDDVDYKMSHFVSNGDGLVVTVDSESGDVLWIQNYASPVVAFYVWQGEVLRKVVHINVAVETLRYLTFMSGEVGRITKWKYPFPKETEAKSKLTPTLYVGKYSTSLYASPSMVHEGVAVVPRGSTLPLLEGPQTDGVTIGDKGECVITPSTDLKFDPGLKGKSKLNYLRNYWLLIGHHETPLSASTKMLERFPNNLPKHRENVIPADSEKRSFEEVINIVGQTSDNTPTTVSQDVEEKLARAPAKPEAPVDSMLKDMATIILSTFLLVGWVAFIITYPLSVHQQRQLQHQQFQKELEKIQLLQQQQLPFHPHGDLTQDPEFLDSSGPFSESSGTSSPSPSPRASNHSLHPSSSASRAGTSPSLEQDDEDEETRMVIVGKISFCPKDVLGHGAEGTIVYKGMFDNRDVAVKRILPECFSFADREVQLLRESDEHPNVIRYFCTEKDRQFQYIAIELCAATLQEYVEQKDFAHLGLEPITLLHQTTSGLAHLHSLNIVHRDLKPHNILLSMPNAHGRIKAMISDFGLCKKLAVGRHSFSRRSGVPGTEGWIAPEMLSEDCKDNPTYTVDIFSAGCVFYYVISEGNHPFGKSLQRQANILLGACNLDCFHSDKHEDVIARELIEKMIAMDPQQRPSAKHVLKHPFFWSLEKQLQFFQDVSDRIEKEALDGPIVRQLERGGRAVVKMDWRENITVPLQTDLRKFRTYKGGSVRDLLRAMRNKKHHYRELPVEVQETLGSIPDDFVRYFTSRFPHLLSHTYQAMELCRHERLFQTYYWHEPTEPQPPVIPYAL
UniProt P63330: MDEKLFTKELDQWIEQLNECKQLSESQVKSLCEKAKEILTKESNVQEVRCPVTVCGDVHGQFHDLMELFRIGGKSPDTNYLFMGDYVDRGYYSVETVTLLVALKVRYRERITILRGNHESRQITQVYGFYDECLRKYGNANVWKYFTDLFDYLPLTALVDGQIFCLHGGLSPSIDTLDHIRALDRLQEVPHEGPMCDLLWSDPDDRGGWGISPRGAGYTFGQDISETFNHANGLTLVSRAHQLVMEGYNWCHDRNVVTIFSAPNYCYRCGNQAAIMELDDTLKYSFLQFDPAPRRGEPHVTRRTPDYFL

These are yes or no findings as the source states them, for the method shown. Binding seen in cells or lysates may run through a third protein. For some assays here: A result given as binding can be weak or reduced; the word gives no strength.

Assay [1] concerns the target IRE-1, endogenous in mouse myocardium (mouse (endogenous in myocardium)) (UniProt Q9EQY0). Description: co-IP; endogenous proteins in Pak2-Flox mouse hearts after TAC.
Assay [2] shares this target. In words: co-IP; endogenous proteins in Pak2-CKO mouse myocardium after TAC.

In the case of “PP2Ac, endogenous in mouse myocardium (from UniProt P63330)”, the binding result in assay [1] is given as “no binding (only in Pak2-Flox hearts after TAC)”; in assay [2], “binds”.
